From PubChem BioAssay AID540275 (National Center for Advancing Translational Sciences (NCATS), 2011)
Out of some 320,000 compounds screened, about 620 (0.19%) were called active. Inconclusive means that the source gave no clear call. Such entries were picked first, then a sample of the others. Cut-off read from the data, not from the text of the source: active = activation above about 80%; inconclusive = between about 30% and that limit; inactive = weaker than that.

Protein sequences, listed by entry. Tags and fused reporters are not part of them.
UniProt Q8NER1, whole entry, looked up: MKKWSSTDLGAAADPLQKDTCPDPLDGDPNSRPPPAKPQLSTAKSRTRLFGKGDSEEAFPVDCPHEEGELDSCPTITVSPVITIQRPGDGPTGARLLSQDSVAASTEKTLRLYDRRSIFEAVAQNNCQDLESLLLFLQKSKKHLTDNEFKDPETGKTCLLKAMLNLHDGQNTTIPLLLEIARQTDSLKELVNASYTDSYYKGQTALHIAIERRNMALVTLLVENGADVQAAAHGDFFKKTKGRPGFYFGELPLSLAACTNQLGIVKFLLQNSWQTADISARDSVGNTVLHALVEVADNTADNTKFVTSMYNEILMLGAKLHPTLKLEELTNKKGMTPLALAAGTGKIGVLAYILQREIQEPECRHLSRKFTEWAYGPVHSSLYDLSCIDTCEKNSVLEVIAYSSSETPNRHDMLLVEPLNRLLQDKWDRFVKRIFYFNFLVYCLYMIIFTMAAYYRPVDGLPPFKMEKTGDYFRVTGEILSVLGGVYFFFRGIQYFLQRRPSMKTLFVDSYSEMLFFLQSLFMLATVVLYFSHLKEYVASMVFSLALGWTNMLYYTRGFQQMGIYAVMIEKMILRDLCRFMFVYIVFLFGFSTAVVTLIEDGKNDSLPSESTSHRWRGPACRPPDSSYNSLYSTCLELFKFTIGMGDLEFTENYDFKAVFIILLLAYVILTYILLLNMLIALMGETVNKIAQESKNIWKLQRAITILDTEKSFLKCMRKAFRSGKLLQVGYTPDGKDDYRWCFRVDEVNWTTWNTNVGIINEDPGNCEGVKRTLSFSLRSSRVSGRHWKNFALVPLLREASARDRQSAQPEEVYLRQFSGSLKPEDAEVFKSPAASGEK

Each compound was assayed against Transient receptor potential cation channel subfamily V member 1 (Homo sapiens) (UniProt Q8NER1) (assay: HTS Assay for Compounds that Act as Agonists of the Vanilloid Receptor 1). Details: TRPV1-expressing cells, Fluo-8 calcium influx, agonist mode; at 8.33 µM, active compounds read high.
Method in brief: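 Fluo-8 calcium influx in TRPV1-expressing cells, kinetic read (ex 480/em 520 nm). Compound added and read 3 min for agonist activity, followed by capsaicin at EC20 final and 2 min further read for enhancement.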
Note: 0% is about no effect.

SMILES | activation
CN(C)S(=O)(=O)c1cccc(COC(=O)CCNC(=O)c2ccc([N+](=O)[O-])cc2)c1 | inactive: 1.09%
Cc1ccc(S(=O)(=O)CC2CSc3nnc(C)c(=O)n32)cc1 (stereo not given) | inactive: 1.31%
O=C(Nc1ccncc1)c1ccc(-c2ccccc2)cc1 | inconclusive: 55.1%
CC1OC(O[C@H]2CC[C@]3(C)C4C=C[C@]56OC[C@@]7(CC[C@@H](C)[C@H](C)C75)[C@H](O)C[C@@]6(C)[C@]4(C)CC[C@H]3C2(C)C)C(OC2OC(CO)C(O)C(O)C2OC2OCC(O)C(O)C2O)C(O)C1O (stereo not given in full) | inconclusive: 39.8%
Oc1ccc(/C=N/Nc2ccnc3cc(Cl)ccc23)cc1O | inconclusive: 62.9%
COc1ccc(NC(=O)CN(C)C(=O)c2cc(CN3C(=O)c4ccccc4C3=O)ccc2OC)cc1 | inactive: 1.13%
Cc1ccc(N(CCC#N)C(=O)CSc2nc3ccccc3c(=O)[nH]2)cc1 | inactive: 0.963%
COc1ccc(C(=O)N2N=C(c3cccc(OC)c3)CC2(O)C(F)(F)F)cc1 (stereo not given) | inconclusive: 43.5%
O=C(Nc1ccccn1)C(F)(F)C(F)(F)C(F)(F)C(F)(F)C(=O)Nc1ccccn1 | inactive: -1.27%
O=C(c1ccccc1)c1cccc(NC(=O)c2ccc(Br)o2)c1 | inconclusive: 54%
CC1(C)Cc2cccc(OCC(=O)NCc3ccccc3F)c2O1 | inconclusive: 52.3%
CC(C)CCC(O)(c1ccccc1)C(CN1CCOCC1)c1ccccc1 (stereo not given) | inconclusive: 36.3%
O=[N+]([O-])c1cc(/C=N/O)ccc1Oc1cccc(Cl)c1 | inconclusive: 31.9%
CC(=O)c1cccc(NC(=O)/C=C/c2ccc([N+](=O)[O-])s2)c1 | active: 83.6%
CCOC(=O)c1c(NC(=O)CSc2c[nH]c3ccccc23)sc2c1CCC2 | inconclusive: 62%
COc1ccc(/C=C/C(=O)Oc2ccc(C)cc2)cc1 | inactive: -0.131%
Cc1ccc(NC(=O)ON=C2CCCC2)cc1 | inconclusive: 41.6%
Cc1cc(C(=O)CSc2nc(N)cc(=O)[nH]2)c(C)n1-c1ccc(OC(F)F)cc1 | inactive: 3.39%
Nc1c(C(=O)Nc2nc3ccccc3s2)sc2nc(-c3cccs3)ccc12 | inactive: -1.91%
O=C(NCc1ccccc1)C1CCN(S(=O)(=O)N2CCOCC2)CC1 | inactive: -2.16%
Cc1cc(C(=O)Nc2ccncc2)c2ccccc2n1 | inconclusive: 36.5%
Cc1ccccc1S(=O)(=O)c1c(C)cc(C)n(C(C)C)c1=O | inconclusive: 32.9%
Cc1nc(Nc2ccccc2O)c2oc3ccccc3c2n1 | inconclusive: 41.1%

SMILES | activation
C/C(=N\NC(=O)c1ccc(O)cc1O)c1cccnc1 | inconclusive: 55.9%
CN(C)c1ccc(/C=N/NC(=O)c2ccc(Cn3cc(Br)cn3)o2)cc1 | inconclusive: 36%
COc1ccc(NC(=O)c2ccc(OC)cc2)cc1 | inconclusive: 69.7%
Cn1c(CSCc2ccc(Cl)cc2)nnc1SCC(=O)Nc1nccs1 | inactive: -0.831%
O=[N+]([O-])c1ccc(/C=N/NC(=S)Nc2ccccc2C(F)(F)F)o1 | inactive: 0.321%
O=C(N/N=C/c1cccnc1)C1CC1(c1ccccc1)c1ccccc1 (stereo not given) | inconclusive: 38.7%
COc1ccccc1/C=C/CN1CCNC(=O)C1CC(=O)NCCc1cnccn1 (stereo not given) | inactive: -1.47%
CCCC(=O)c1ccc(N2CCN(C(=O)OCC)CC2)c(F)c1 | inconclusive: 35.7%
CC(C)CC(COCc1ccc(C(F)(F)F)cc1)N1CCN(C(=O)c2ccc(C(F)(F)F)cc2)CCC1=O (stereo not given) | inconclusive: 44.1%
Cc1cc2nc(/C=C/c3cccnc3)[nH]c2cc1C | inconclusive: 70.4%
CC12COC3(P(=O)(c4ccccc4)c4ccccc4)CC1CCC23CP(=O)(c1ccccc1)c1ccccc1 (stereo not given) | inconclusive: 58.3%
CSCc1c(C(=O)NCCc2ccccn2)oc2ccccc12 | inconclusive: 46%
O=C(NCC1CCCO1)c1ccc2c(=O)n(CCc3ccccc3)c(=O)[nH]c2c1 (stereo not given) | inactive: 1.39%
CCc1ccc(C(C)NC(=S)NCc2ccc(F)cc2)cc1 (stereo not given) | inconclusive: 79.5%
O=S(=O)(c1ccc2nc(SCc3ccc(Cl)cc3)[nH]c2c1)N1CCOCC1 | inconclusive: 34.3%
COc1ccc(OC)c(C(c2nnnn2C2CCCC2)N2CCc3ccccc3C2)c1 (stereo not given) | inconclusive: 38.3%
O=c1[nH]c(NNC(=S)NC2CCCCC2)nc2c1C1(CCCC1)Cc1ccccc1-2 | inactive: 0.0473%
O=C(NCCO)c1cccc(Nc2nc(-c3ccccc3)c3cc(Cl)ccc3n2)c1 | inconclusive: 56.1%
CCn1ccnc1CN1CCCC(C(=O)c2ccc3cc(OC)ccc3c2)C1 (stereo not given) | inactive: 10.8%
O=C(Nc1ccc(Br)c(Cl)c1)c1ccco1 | inconclusive: 64.9%
OCc1cn(-c2ccccc2)nc1-c1ccco1 | inactive: 1.67%
C=C[C@]1(C)C[C@H]1[C@H](NP(=O)(c1ccccc1)c1ccccc1)c1ccccc1 | inconclusive: 57.8%
Cc1cc(C)cc(NC(=O)Nc2c(Br)cnn2C)c1 | inconclusive: 34.6%

SMILES | activation
CC1(C)Oc2ccc(C(=O)NN)cc2NC1=O | inactive: -10.2%
CNC[C@H](O)c1cccc(O)c1 | inactive: 2.78%
CSc1cccc(NC(=O)COc2ccccc2)c1 | inconclusive: 33.3%
O=[N+]([O-])c1cc([N+](=O)[O-])c(Oc2ccc(F)cc2F)cc1NN1CCCCC1 | inconclusive: 67.1%
COc1ccc2nc(SCC(=O)NCCc3ccccc3)[nH]c2c1 | inconclusive: 44.1%
O=C(N/N=C/c1ccco1)c1cc(-c2ccc(Cl)s2)[nH]n1 | inactive: -2.53%
O=C(NC(c1ccccc1)c1ccccc1)c1ccc(=O)[nH]n1 | inconclusive: 43.2%
Cc1ccc(S(=O)(=O)N2CCOCC2)cc1C(=O)Nc1nc2ccccc2[nH]1 | inconclusive: 52.5%
Cc1ccc(/C=N/NC(=O)c2ccc3nc[nH]c3c2)o1 | inactive: -2.89%
CCCCOc1ccc(C(=O)NCc2ccccn2)cc1 | inconclusive: 52.8%
Cc1ccc(NC(=O)COc2ccccc2)cc1Cl | inconclusive: 43.8%
O=C(N/N=C\c1ccc(COc2ccc([N+](=O)[O-])cc2)o1)c1ccc(Cl)cc1 | inactive: -0.591%
CCCC(=O)N(CCc1ccc(OC)cc1)Cc1nc2ccccc2c(=O)[nH]1 | inactive: -1.89%
CC1CCN(C(=S)Nc2ccc(SC(F)F)cc2)CC1 | inconclusive: 58.3%
CCOC(=O)N1CCN(C(=O)CSCC(=O)Nc2nc(-c3cccs3)cs2)CC1 | inactive: -2.01%
COc1cc(C(=O)N2CCCN(c3nc4cc(C)ccc4cc3C#N)CC2)cc(OC)c1OC | inconclusive: 39.8%
CCOc1ccc(-c2nc(CSCC(=O)NC3CCCc4ccccc43)c(C)o2)cc1 (stereo not given) | inconclusive: 34.7%
c1csc(C2CCCN2c2nc3nonc3nc2NC2CC2)n1 (stereo not given) | inactive: 14.6%
Cc1occc1C(=O)OCC(=O)Nc1ccc(F)cc1 | inconclusive: 31.3%
CCCCCCN(CCCCCC)C(=O)Cc1c(-c2ccc(F)cc2)[nH]c2ccccc12 | inconclusive: 34.2%
CC(C)NS(=O)(=O)c1ccc(NC(=S)NC(=O)c2ccc(-c3ccccc3)cc2)cc1 | inactive: 1.39%
Cc1cc(C)cc(NC(=O)CCCSc2nc3ccccc3[nH]2)c1 | inconclusive: 58.2%
O=C(/C=C/c1ccccc1)NCCSCc1ccccc1 | inconclusive: 63.5%

SMILES | activation
Cc1ccc(C(=O)N2CCCC(c3ccc(Cl)cc3)=N2)cc1 | inconclusive: 45.8%
CN(C)C(=O)/C(C#N)=C\c1cc(Br)c(Sc2ccc(Cl)cc2)o1 | inconclusive: 32.8%
O=C(NCc1ccco1)c1ccc2c(c1)N(Cc1ccccc1)CCS2 | inconclusive: 37.4%
COc1cccc2sc(Nc3nc(-c4ccccn4)cs3)nc12 | inconclusive: 61.7%
CN(C)/C=N/c1ncc(C(=O)c2ccc(Cl)cc2Cl)s1 | inconclusive: 36.8%
N#Cc1c(-c2cccc(Br)c2)cc(-c2cccnc2)nc1N | inconclusive: 55%
CC(C)=CCCC(C)NC(=O)NC1CCCCC1 (stereo not given) | inconclusive: 49.1%
Cc1cccc(NC(=O)c2ccccc2NC(=O)C(C)(C)C)n1 | inconclusive: 36.7%
O=C(Nc1nnc(-c2ccc(Cl)cc2)o1)C1CCCCC1 | inactive: 4.72%
CCCCn1c(=O)[nH]c2nc3cc(N)ccc3nc2c1=O | inconclusive: 45.1%
Cc1nc(NC(=O)CCc2ccccc2)ccc1Br | inconclusive: 31.5%
O=C(NCCN1CCOCC1)c1c[nH]c2ccc(S(=O)(=O)N3CCOCC3)cc2c1=O | inactive: 1.35%
CCOC(=O)c1cnc2c(C(F)(F)F)cccc2c1N1CCN(C)CC1 | inconclusive: 48%
O=C(Nc1ccc(N2CCCCC2)cc1)c1ccc(F)cc1F | inconclusive: 76.5%
C=CCn1c(SCC(=O)N2CCCC2=O)nc2sc(CC)cc2c1=O | inconclusive: 30.3%
C/C=C/c1ccc(OCC(=O)Nc2ccc(C(N)=O)cc2)c(OC)c1 | inconclusive: 52.4%
CC(Oc1ccccc1)C(=O)Nc1cccc(NC(=O)c2ccco2)c1 (stereo not given) | inconclusive: 37.4%
Cc1ccc(-c2nc(SCC(=O)NCC3CCCO3)c(-c3ccc(Cl)cc3)[nH]2)cc1 (stereo not given) | inconclusive: 44.2%
O=C(c1cnsn1)N1CCC(CO)(Cc2ccc(Cl)cc2)CC1 | inactive: -1.27%
O=C(Nc1cccnc1)c1cc(-c2cccs2)on1 | inconclusive: 39.7%
CC(=O)N1c2ccccc2C(C)(C)C2CCC(C)CC21 (stereo not given) | inconclusive: 39%

Copied from the list.
Cc1ccc(C(=O)N2CCCC(c3ccc(Cl)cc3)=N2)cc1 – activation: inconclusive: 45.8%
C/C=C/c1ccc(OCC(=O)Nc2ccc(C(N)=O)cc2)c(OC)c1 – activation: inconclusive: 52.4%

Not a retest: an excerpt of the list.
SMILES | activation
O=C(Nc1cccnc1)c1cc(-c2cccs2)on1 | inconclusive: 39.7%
CC(=O)N1c2ccccc2C(C)(C)C2CCC(C)CC21 (stereo not given) | inconclusive: 39%
